The source gives many values for each of these; only a part stands here.
System: H. pylori 26695
Experiment: In vivo inhibition of HsrA: RNA-Seq transcriptomic analysis of exposed cells
Format: cell-based, Helicobacter pylori
Method: Bacterial growth from three blood agar plates of H. pylori ATCC 700392 (aka 26695) incubated for 48 h at 37 °C under microaerobic conditions was aseptically resuspended in BHI + FBS and adjusted to 10^7 CFU/mL. BHI broth cultures were incubated microaerobically at 37 °C for 24 h. […] At this time, bacterial growth was stopped by adding 1.5 mL ice-cold RNA stop solution (95% absolute ethanol, 5% acid-buffered phenol) and subsequently incubated on ice. Control samples were exposed to the same amount of DMSO instead of the inhibitor. Helicobacter cells from all samples were harvested by centrifugation (4000 rpm at 4 °C for 10 min), then the pellets were quickly frozen by immersion in liquid nitrogen and stored at −80 °C.
RNA-Seq analysis was performed by GENEWIZ (Azenta Life Sciences, Leipzig, Germany). Frozen cell pellets from two biological replicates of each treatment condition were properly submitted to GENEWIZ in dry ice. RNA-Seq libraries were prepared according to standard protocols via rRNA depletion, RNA fragmentation and random priming, reverse transcription, 5’-phosphorylation and dA-tailing of cDNAs, adaptor ligation, and PCR enrichment. Once the quality of each library was confirmed, they were sequenced on an Illumina NovaSeq 6000 (Illumina, San Diego, CA, USA) with 150-bp paired-ends. Raw sequence reads were filtered to remove possible adapter sequences and nucleotides with poor quality using Trimmomatic v.0.36 [105]. The trimmed reads were subsequently mapped to the H. pylori strain 26695 reference genome NC_000915.1 available on NCBI, by using the Bowtie2 aligner v.2.2.6 [106]. Unique gene hit counts were calculated by using featureCounts from the Subread package v.1.5.2. Only unique reads that fell within the gene regions were counted. Using DESeq2 [108], a comparison of the gene expression between the control and treated groups of samples was performed. The Wald test was used to generate p-values and log2 fold changes. Genes with an adjusted p-value < 0.05 and absolute log2 fold change >1 were considered as differentially expressed genes (DEGs) for each comparison. The RNA-Seq data generated in this study have been deposited in ArrayExpress with the accession number E-MTAB-14255.

NC(=NOC(=O)Nc1ccc(Cl)cc1)c1csc([N+](=O)[O-])c1 [Ligand V, N′-{[(4-chloroanilino)carbonyl]}oxy-5-nitrothiophene-3-carboximidamide]
log2 Fold Change (gene HP0251, exposed to lethal concentrations vs control): 1.533 | log2 Fold Change (gene HP0252, exposed to lethal concentrations vs control): -0.703 | log2 Fold Change (gene HP0255, exposed to lethal concentrations of V vs control): 0.689 | log2 Fold Change (gene HP0256, exposed to lethal concentration of V vs control): -1.073 | log2 Fold Change (gene HP0260, exposed to lethal concentrations of V vs control): 0.900 | log2 Fold Change (gene HP0261, exposed to lethal concentrations vs control): 1.452 | log2 Fold Change (gene HP0262, exposed to lethal concentrations vs control): 1.538 | log2 Fold Change (gene HP0264, exposed to lethal concentrations vs control): 1.690 | log2 Fold Change (gene HP0265, exposed to lethal concentrations of V vs control): 0.976 | log2 Fold Change (gene HP0270, exposed to lethal concentrations vs control): -0.071 | log2 Fold Change (gene HP0271, exposed to lethal concentrations vs control): 0.033 | log2 Fold Change (gene HP0272, exposed to lethal concentrations vs control): -0.869 | log2 Fold Change (gene HP0273, exposed to lethal concentration of V vs control): -1.270 | log2 Fold Change (gene HP0274, exposed to lethal concentrations vs control): -0.769 | log2 Fold Change (gene HP0275, exposed to lethal concentrations vs control): -0.055 | log2 Fold Change (gene HP0277, exposed to lethal concentrations vs control): -0.724 | log2 Fold Change (gene HP0278, exposed to lethal concentrations vs control): -0.628 | log2 Fold Change (gene HP0279, exposed to lethal concentrations vs control): -0.763 | log2 Fold Change (gene HP0280, exposed to lethal concentration of V vs control): -1.198 | log2 Fold Change (gene HP0284, exposed to lethal concentrations vs control): -0.801 | log2 Fold Change (gene HP0286, exposed to lethal concentrations vs control): 0.009 | log2 Fold Change (gene HP0287, exposed to lethal concentrations vs control): -0.023 | log2 Fold Change (gene HP0288, exposed to lethal concentrations vs control): -0.627 | log2 Fold Change (gene HP0289, exposed to lethal concentrations vs control): 0.047 | log2 Fold Change (gene HP0299, exposed to lethal concentrations of V vs control): 0.654 | log2 Fold Change (gene HP0300, exposed to lethal concentrations of V vs control): 0.931 | log2 Fold Change (gene HP0301, exposed to lethal concentrations of V vs control): 0.887 | log2 Fold Change (gene HP0302, exposed to lethal concentrations of V vs control): 0.500 | log2 Fold Change (gene HP0306, exposed to lethal concentrations vs control): -0.700 | log2 Fold Change (gene HP0307, exposed to lethal concentration of V vs control): -1.080 | log2 Fold Change (gene HP0308, exposed to lethal concentration of V vs control): -2.061 | log2 Fold Change (gene HP0309, exposed to lethal concentrations vs control): 1.051 | log2 Fold Change (gene HP0310, exposed to lethal concentrations vs control): 2.227 | log2 Fold Change (gene HP0311, exposed to lethal concentrations vs control): 2.111 | log2 Fold Change (gene HP0312, exposed to lethal concentrations of V vs control): 0.934 | log2 Fold Change (gene HP0317, exposed to lethal concentrations vs control): 1.450 | log2 Fold Change (gene HP0318, exposed to lethal concentrations vs control): -0.733 | log2 Fold Change (gene HP0323, exposed to lethal concentrations vs control): 0.108 | log2 Fold Change (gene HP0324, exposed to lethal concentrations vs control): -0.008 | log2 Fold Change (gene HP0326, exposed to lethal concentrations vs control): -0.070 | log2 Fold Change (gene HP0327, exposed to lethal concentration of V vs control): -1.337 | log2 Fold Change (gene HP0330, exposed to lethal concentrations vs control): 1.539 | log2 Fold Change (gene HP0331, exposed to lethal concentrations vs control): 1.107 | log2 Fold Change (gene HP0333, exposed to lethal concentrations of V vs control): 0.746 | log2 Fold Change (gene HP0334, exposed to lethal concentrations of V vs control): 0.504 | log2 Fold Change (gene HP0337, exposed to lethal concentrations vs control): -0.759 | log2 Fold Change (gene HP0341, exposed to lethal concentrations of V vs control): 0.522 | log2 Fold Change (gene HP0342, exposed to lethal concentrations of V vs control): 0.938 | log2 Fold Change (gene HP0354, exposed to lethal concentrations vs control): -0.640 | log2 Fold Change (gene HP0356, exposed to lethal concentration of V vs control): -1.256 | log2 Fold Change (gene HP0357, exposed to lethal concentrations vs control): 1.028 | log2 Fold Change (gene HP0358, exposed to lethal concentrations vs control): 0.072 | log2 Fold Change (gene HP0362, exposed to lethal concentrations vs control): -0.779 | log2 Fold Change (gene HP0366, exposed to lethal concentrations of V vs control): 0.788 | log2 Fold Change (gene HP0371, exposed to lethal concentration of V vs control): -1.171 | log2 Fold Change (gene HP0373, exposed to lethal concentrations vs control): 0.010 | log2 Fold Change (gene HP0374, exposed to lethal concentrations vs control): -0.069 | log2 Fold Change (gene HP0375, exposed to lethal concentrations vs control): -0.048 | log2 Fold Change (gene HP0377, exposed to lethal concentration of V vs control): -1.365 | log2 Fold Change (gene HP0378, exposed to lethal concentration of V vs control): -1.179 | log2 Fold Change (gene HP0379, exposed to lethal concentrations vs control): -0.769 | log2 Fold Change (gene HP0380, exposed to lethal concentrations vs control): 1.024 | log2 Fold Change (gene HP0381, exposed to lethal concentrations of V vs control): 0.844 | log2 Fold Change (gene HP0382, exposed to lethal concentrations vs control): 1.070 | log2 Fold Change (gene HP0383, exposed to lethal concentrations vs control): -0.688 | log2 Fold Change (gene HP0384, exposed to lethal concentrations of V vs control): 0.582 | log2 Fold Change (gene HP0387, exposed to lethal concentrations vs control): -0.650 | log2 Fold Change (gene HP0388, exposed to lethal concentrations of V vs control): 0.531 | log2 Fold Change (gene HP0389, exposed to lethal concentrations vs control): 1.281 | log2 Fold Change (gene HP0390, exposed to lethal concentrations of V vs control): 0.839 | log2 Fold Change (gene HP0392, exposed to lethal concentrations of V vs control): 0.889 | log2 Fold Change (gene HP0394, exposed to lethal concentration of V vs control): -0.966 | log2 Fold Change (gene HP0395, exposed to lethal concentrations vs control): -0.644 | log2 Fold Change (gene HP0398, exposed to lethal concentration of V vs control): -1.123 | log2 Fold Change (gene HP0404, exposed to lethal concentrations vs control): -0.086 | log2 Fold Change (gene HP0407, exposed to lethal concentrations vs control): 1.072 | log2 Fold Change (gene HP0410, exposed to lethal concentration of V vs control): -1.073 | log2 Fold Change (gene HP0414, exposed to lethal concentrations vs control): -0.016 | log2 Fold Change (gene HP0415, exposed to lethal concentrations vs control): -0.127 | log2 Fold Change (gene HP0419, exposed to lethal concentrations vs control): -0.107 | log2 Fold Change (gene HP0422, exposed to lethal concentrations vs control): 0.145 | log2 Fold Change (gene HP0423, exposed to lethal concentrations of V vs control): 0.874 | log2 Fold Change (gene HP0424, exposed to lethal concentrations vs control): 1.411 | log2 Fold Change (gene HP0425, exposed to lethal concentrations vs control): 1.149 | log2 Fold Change (gene HP0426, exposed to lethal concentrations vs control): 1.220 | log2 Fold Change (gene HP0428, exposed to lethal concentrations vs control): 0.040 | log2 Fold Change (gene HP0430, exposed to lethal concentrations vs control): -0.078 | log2 Fold Change (gene HP0431, exposed to lethal concentrations vs control): 0.064 | log2 Fold Change (gene HP0438, exposed to lethal concentrations vs control): 1.101 | log2 Fold Change (gene HP0439, exposed to lethal concentrations vs control): 2.298 | log2 Fold Change (gene HP0442, exposed to lethal concentrations of V vs control): 0.900 | log2 Fold Change (gene HP0444, exposed to lethal concentrations vs control): 1.046 | log2 Fold Change (gene HP0446, exposed to lethal concentrations vs control): -0.113 | log2 Fold Change (gene HP0448, exposed to lethal concentrations vs control): 2.651 | log2 Fold Change (gene HP0451, exposed to lethal concentrations vs control): 0.142 | log2 Fold Change (gene HP0453, exposed to lethal concentrations vs control): 1.019 | log2 Fold Change (gene HP0454, exposed to lethal concentrations vs control): 1.419 | log2 Fold Change (gene HP0456, exposed to lethal concentrations vs control): 1.236 | log2 Fold Change (gene HP0457, exposed to lethal concentrations vs control): 1.085 | log2 Fold Change (gene HP0459, exposed to lethal concentrations of V vs control): 0.800 | log2 Fold Change (gene HP0463, exposed to lethal concentrations vs control): -0.006 | log2 Fold Change (gene HP0466, exposed to lethal concentration of V vs control): -1.757 | log2 Fold Change (gene HP0468, exposed to lethal concentrations of V vs control): 0.758 | log2 Fold Change (gene HP0470, exposed to lethal concentrations of V vs control): 0.943 | log2 Fold Change (gene HP0471, exposed to lethal concentrations vs control): 0.057 | log2 Fold Change (gene HP0473, exposed to lethal concentrations vs control): -0.745 | log2 Fold Change (gene HP0475, exposed to lethal concentrations vs control): -0.101 | log2 Fold Change (gene HP0477, exposed to lethal concentrations vs control): -0.077 | log2 Fold Change (gene HP0478, exposed to lethal concentrations of V vs control): 0.596 | log2 Fold Change (gene HP0480, exposed to lethal concentrations of V vs control): 0.516 | log2 Fold Change (gene HP0484, exposed to lethal concentrations vs control): -0.039 | log2 Fold Change (gene HP0486, exposed to lethal concentrations of V vs control): 0.541 | log2 Fold Change (gene HP0487, exposed to lethal concentrations vs control): -0.670 | log2 Fold Change (gene HP0488, exposed to lethal concentrations vs control): 2.617 | log2 Fold Change (gene HP0489, exposed to lethal concentrations vs control): 0.104 | log2 Fold Change (gene HP0490, exposed to lethal concentration of V vs control): -1.773 | log2 Fold Change (gene HP0492, exposed to lethal concentration of V vs control): -1.353 | log2 Fold Change (gene HP0495, exposed to lethal concentration of V vs control): -1.090 | log2 Fold Change (gene HP0497, exposed to lethal concentrations of V vs control): 0.778
